# Some of the results follow.
# Assay: GCN4-lacZ reporter reduction in eIF2B-epsilon mutant yeast, primary screen, S. cerevisiae, eIF2B-epsilon R284H, Beta-Glo luminescence (AID 688)
# Settings: measured here: mutant yeast growth, toxicity, concentration not given here
row,SMILES,growth inhibition
1,O=C(OC1CN2CCC1CC2)c1cccc(Cl)c1 (configuration not stated),-23.8%
2,O=P1(Nc2nc3ccc(Cl)cc3s2)COc2ccccc2O1 (configuration not stated),14.8%
3,Cc1c(NP(C)(=O)Oc2ccc(C(C)C)cc2)c(=O)n(-c2ccccc2)n1C (configuration not stated),-2.27%
4,Cc1c2non([O-])c-2c(C)[n+](=O)[n+]1[O-],-15.8%
5,Oc1ccccc1CNc1ccccn1,8.06%
6,COc1ccc(OP(C)(=O)Nc2ccccn2)cc1 (configuration not stated),17.6%
7,CN1CCCC(OC(=O)C(c2ccccc2)c2ccccc2)C1 (configuration not stated),-3.33%
8,CC1CCN(C(=O)Oc2c(Cl)cc(Cl)c3cccnc23)CC1,-19.1%
9,O=[N+]([O-])c1cccc2n[nH]nc12,22.5%
10,CCOP(C)(=S)SCC(=O)NC(C)C(=O)O (configuration not stated),15.8%
11,O=C(OC1CN2CCC1CC2)C12CC3CC(CC(C3)C1)C2 (configuration not stated),6.45%
12,Cc1ccc(NP(C)(=O)Oc2ccccc2)c(C)c1 (configuration not stated),-19.1%
13,Cc1cc(C)cc(OP(C)(=O)Nc2ccccn2)c1 (configuration not stated),10%
14,CC1(CBr)Cn2c(nc3ccccc3c2=O)S1 (configuration not stated),0%
15,O=P1(Nc2ccc(Br)cn2)COc2ccccc2OC1,18.5%
16,O=P1(Nc2ncccn2)COc2ccccc2OC1,7.41%
17,COc1ccccc1OP(C)(=O)Nc1c(C)cccc1C (configuration not stated),22.7%
